{"source": "PubChem BioAssay AID504793 (Drosophila RNAi Screening Center, 2011)", "aim": "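Whole-genome screen for parts of the DNA damage checkpoint at G2/M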 (primary screen)", "cells": "Drosophila S2R+ cells", "reagents": "long dsRNA against Drosophila genes, about 0.25 µg dsRNA per well", "timing": "4 days of dsRNA, then 4 hours of drug before read-out", "treatment": "doxorubicin 0.5 µM for 4 hours to cause double-strand breaks, in cells also given a low, harmless dose of dsRNA against nbs to sensitise the assay", "detection": "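Mitotic index as the number of phospho-histone H3-positive cells in each well following doxorubicin, given as raw counts without normalisation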", "direction": "mitotic cells: higher = more cells in mitosis, weaker G2 arrest", "rule for the call": "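Genes are called active only when high mitotic counts were reproduced with independent dsRNAs and mitosis was checked for delay without damage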", "calls": "active = confirmed in follow-up tests; inactive = not confirmed", "note": "The deposit covers about 23,000 reagents; below is a random part of those that have a named target and a result. Of all reagents, 62 (0.27%) got an active call. 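Calls come from follow-up tests whose scores are not deposited, so confirmed genes may have low counts here; counts are not normalised per plate.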 Raw values are not corrected between plates. Reagents against one gene are numbered here. Reagent sequences are not shown."}
{"target": "Vha100-5", "reagent": 1, "mitotic cells, replicate 1": 3, "Outcome": "inactive"}
{"target": "Vha100-5", "reagent": 2, "mitotic cells, replicate 1": 5, "Outcome": "inactive"}
{"target": "Cph", "reagent": 1, "mitotic cells, replicate 1": 11, "Outcome": "inactive"}
{"target": "Cph", "reagent": 2, "mitotic cells, replicate 1": 10, "Outcome": "inactive"}
{"target": "sNPF", "reagent": 1, "Outcome": "inactive"}
{"target": "CG13293", "reagent": 1, "mitotic cells, replicate 1": 6, "Outcome": "inactive"}
{"target": "CG5321", "reagent": 1, "mitotic cells, replicate 1": 5, "Outcome": "inactive"}
{"target": "CG5321", "reagent": 2, "mitotic cells, replicate 1": 18, "Outcome": "inactive"}
{"target": "CG5321", "reagent": 3, "mitotic cells, replicate 1": 6, "Outcome": "inactive"}

Copied from the list:
Result of Vha100-5 #1 under “Outcome”: inactive
Under “mitotic cells, replicate 1”, Cph #2 has 10

Next records:
{"target": "CG46385", "reagent": 1, "mitotic cells, replicate 1": 10, "Outcome": "inactive"}
{"target": "CG46385", "reagent": 2, "mitotic cells, replicate 1": 6, "Outcome": "inactive"}
{"target": "Spn43Ad", "reagent": 1, "mitotic cells, replicate 1": 7, "Outcome": "inactive"}
{"target": "png", "reagent": 1, "mitotic cells, replicate 1": 2, "Outcome": "inactive"}
{"target": "png", "reagent": 2, "mitotic cells, replicate 1": 5, "Outcome": "inactive"}
